Values from PubChem BioAssay AID1259424 (University of Nebraska Medical Center, 2018).
Here is a random part of about 14,000 reagents tested. 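Higher correlation or smaller distance means closer resemblance to KSR1 loss; control wells, including KSR1 knockdowns, recur on many plates.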 Further read-outs or replicates are left out here. No sequences are given here. Not given: the time to read-out.

Screen: 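Rank knockdowns across the genome by resemblance to the KSR1 depletion profile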 (primary screen)
Cells: human HCT116 colon cancer cells
Knock-down reagent: siRNA pool against human genes, 50 nM
Measurement: 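Log2 levels of six mRNAs (branched-DNA multiplex), adjusted by two reference genes and the non-targeting median, then scored against the average KSR1 knockdown pattern as Pearson r and euclidean distance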
Direction: mean correlation with KSR1 profile and KSR1 correlation: higher = expression change more like KSR1 knockdown; mean distance from KSR1 profile: higher = expression change less like KSR1 knockdown

no.	Gene	mean correlation with KSR1 profile	mean distance from KSR1 profile	KSR1 correlation, replicate 1
1	SERPINA5	0.324	1.94	0.0264
2	SIPA1L2	0.304	1.33	0.272
3	TIMM9	0.0116	2.21	-0.256
4	LAIR2	0.406	1.72	0.252
5	SLC25A38	-0.311	2.7	-0.185
6	SSR4	0.574	1.3	0.314
7	PPP2R1A	0.172	1.23	0.341
8	ZNF571	-0.0477	1.34	0.0163
9	SOX7	0.748	2.74	0.662
10	POU2F1	0.219	2.45	0.365
11	RGS13	-0.582	1.7	-0.388
12	CASP3	-0.101	2.08	-0.0357
13	PSKH2	-0.192	2.73	-0.0836
14	DNAL1	0.568	1.73	0.303
15	AP4M1	-0.139	1.55	0.145
16	LHCGR	0.793	1.63	0.721
17	LMAN2L	0.51	2.42	0.578
18	GPRC5A	0.528	0.893	0.0395
19	PIMREG	0.0658	1.42	0.133
20	LY6G6C	0.582	1.25	0.372

2 of these entries in another layout:
{"Gene": "PIMREG", "mean correlation with KSR1 profile": 0.0658, "mean distance from KSR1 profile": 1.42, "KSR1 correlation, replicate 1": 0.133}
{"Gene": "LY6G6C", "mean correlation with KSR1 profile": 0.582, "mean distance from KSR1 profile": 1.25, "KSR1 correlation, replicate 1": 0.372}
